# Test results taken from US20070196902A1, “Method of detecting AZT resistance in HIV” (University of Pittsburgh, priority 2006, published 2007).
# For at least one compound, name, drawing or mass did not settle the structure.
# Key:
# [1] = test system: HIV-1 RT mutations D549N and H539N; details: cited from earlier work
# [2] = test system: HIV-1 RT mutants with A371V and/or Q509L, alone or in combination with TAMs; assay: Drug susceptibility of site-directed mutants, comparisons between mutants with and without A371V/Q509L; assay type: cell-based; details: D67N/K70R/A371V/Q509L and D67N/K70R/T215F/A371V/Q509L
# [3] = test system: HIVLAI RT D67N/K70R/T215F/A371V/Q509L; assay: Drug susceptibility assay in P4/R5 cells, site-directed mutant; assay type: cell-based; details: HIV-1 containing D67N/K70R/T215F/A371V/Q509L
# Procedure: Drug susceptibility assays. NRTI susceptibility was determined in P4/R5 cells as described previously (Parikh, U. M., et al. 2005. Antimicrob. Agents Chemother. 49:1139-44). Briefly, threefold dilutions of inhibitor were added to P4/R5 cells in triplicate and cells were infected with an amount of virus that produced 100 relative units of light (RLU) in no drug, virus control wells. After 48 hours, the cells were lysed (Gal-Screen; Tropix/Applied Biosystems, Foster City, Calif.) and the RLU was measured using a ThermoLabSystems luminometer (Waltham, Mass.). The IC50 and fold-resistance were calculated as described above. IC50 values from at least three independent experiments were log10 transformed and compared for statistically significant differences using the two-sample Student's t test.
# Construction of mutant recombinant HIV-1. […]
smiles,measurement,setting,value
Nc1ccn([C@@H]2CS[C@H](CO)O2)c(=O)n1 [lamivudine],effect of the mutations on susceptibility,[1],no effect
same,cross-resistance of viruses with A371V and Q509L in combination with TAMs compared with those with only TAMs,[2],Statistically significant increases in cross-resistance
same,cross-resistance compared with viruses without A371V/Q509L,[3],greater cross-resistance
